Measured values as given in US9487515B2, “Compounds modulating c-fms and/or c-kit activity and uses therefor” (Plexxikon Inc., priority 2006, dated 2016).
Some of these results come from one statement about several compounds together.

The compounds below were run against Fms (UniProt P07333) (assay: Fms assays of Examples 40 or 41 (AlphaScreen kinase assays at 10 and 100 μM ATP, 33P-ATP filter assay, RAW264.7 pFMS and M-NFS-60 M-CSF-stimulated proliferation)). Conditions: in at least one of the Fms assays described in Examples 40 or 41.

IC50, < 1 µM:
Cc1cc(CNc2nc(Cl)c(Cc3c[nH]c4ncccc34)s2)n(C)n1 [P-0175, [4-Chloro-5-(1H-pyrrolo[2,3-b]pyridin-3-ylmethyl)-thiazol-2-yl]-(2,5-dimethyl-2H-pyrazol-3-ylmethyl)-amine]
FC(F)(F)c1ccc(CNc2ccc(Cc3c[nH]c4ncc(Cl)cc34)c(Cl)n2)cn1 [P-0176, [6-Chloro-5-(5-chloro-1H-pyrrolo[2,3-b]pyridin-3-ylmethyl)-pyridin-2-yl]-(6-trifluoromethyl-pyridin-3-ylmethyl)-amine]
Cn1cc(-c2cnc3[nH]cc(Cc4ccc(NCc5ccc(C(F)(F)F)nc5)nc4Cl)c3c2)cn1 [P-0179, {6-Chloro-5-[5-(1-methyl-1H-pyrazol-4-yl)-1H-pyrrolo[2,3-b]pyridin-3-ylmethyl]-pyridin-2-yl}-(6-trifluoromethyl-pyridin-3-ylmethyl)-amine]
Cn1cc(-c2cnc3[nH]cc(Cc4cc(NCc5ccc(F)cc5)nn4C)c3c2)cn1 [P-0180, (4-Fluoro-benzyl)-{1-methyl-5-[5-(1-methyl-1H-pyrazol-4-yl)-1H-pyrrolo[2,3-b]pyridin-3-ylmethyl]-1H-pyrazol-3-yl}-amine]
FC(F)(F)c1ccc(CNc2ccc(Cc3c[nH]c4ncccc34)cn2)cn1 [P-0182, [5-(1H-Pyrrolo[2,3-b]pyridin-3-ylmethyl)-pyridin-2-yl]-(6-trifluoromethyl-pyridin-3-ylmethyl)-amine]
Clc1cnccc1CNc1ccc(Cc2c[nH]c3ncccc23)cn1 [P-0183, (3-Chloro-pyridin-4-ylmethyl)-[5-(1H-pyrrolo[2,3-b]pyridin-3-ylmethyl)-pyridin-2-yl]-amine]
CCn1nc(NCc2ccc(F)cc2)cc1Cc1c[nH]c2ncc(Cl)cc12 [P-0185, [5-(5-Chloro-1H-pyrrolo[2,3-b]pyridin-3-ylmethyl)-1-ethyl-1H-pyrazol-3-yl]-(4-fluoro-benzyl)-amine]
Fc1nc(NCc2ccc(C(F)(F)F)nc2)ccc1Cc1c[nH]c2ncc(Cl)cc12 [P-0186, [5-(5-Chloro-1H-pyrrolo[2,3-b]pyridin-3-ylmethyl)-6-fluoro-pyridin-2-yl]-(6-trifluoromethyl-pyridin-3-ylmethyl)-amine]
COc1cnc2[nH]cc(Cc3ccc(NCc4ccc(C(F)(F)F)nc4)nc3F)c2c1 [P-0187, [6-Fluoro-5-(5-methoxy-1H-pyrrolo[2,3-b]pyridin-3-ylmethyl)-pyridin-2-yl]-(6-trifluoromethyl-pyridin-3-ylmethyl)-amine]
Fc1nc(NCc2ccc(C(F)(F)F)nc2)ccc1Cc1c[nH]c2ncccc12 [P-0188, [6-Fluoro-5-(1H-pyrrolo[2,3-b]pyridin-3-ylmethyl)-pyridin-2-yl]-(6-trifluoromethyl-pyridin-3-ylmethyl)-amine]
Clc1cnc2[nH]cc(Cc3sc(NCc4nccs4)nc3Cl)c2c1 [P-0189, [4-Chloro-5-(5-chloro-1H-pyrrolo[2,3-b]pyridin-3-ylmethyl)-thiazol-2-yl]-thiazol-2-ylmethyl-amine]
COc1ccc(CNc2nc(Cl)c(Cc3c[nH]c4ncc(Cl)cc34)s2)cn1 [P-0190, [4-Chloro-5-(5-chloro-1H-pyrrolo[2,3-b]pyridin-3-ylmethyl)-thiazol-2-yl]-(6-methoxy-pyridin-3-ylmethyl)-amine]
Cn1nc(NCc2ccc(F)cc2)cc1Cc1c[nH]c2ncc(C#N)cc12 [P-0191, 3-[5-(4-Fluoro-benzylamino)-2-methyl-2H-pyrazol-3-ymethyl]-1H-pyrrolo[2,3-b]pyridine-5-carbonitrile]
Clc1cnc2[nH]cc(Cc3sc(NCc4ccccc4)nc3Cl)c2c1 [P-0192, Benzyl-[4-chloro-5-(5-chloro-1H-pyrrolo[2,3-b]pyridin-3-ylmethyl)-thiazol-2-yl]-amine]
COc1cccc(CNc2nc(Cl)c(Cc3c[nH]c4ncc(Cl)cc34)s2)c1 [P-0193, [4-Chloro-5-(5-chloro-1H-pyrrolo[2,3-b]pyridin-3-ylmethyl)-thiazol-2-yl]-(3-methoxy-benzyl)-amine]
Clc1ccc(CNc2nc(Cl)c(Cc3c[nH]c4ncc(Cl)cc34)s2)cc1 [P-0194, (4-Chloro-benzyl)-[4-chloro-5-(5-chloro-1H-pyrrolo[2,3-b]pyridin-3-ylmethyl)-thiazol-2-yl]-amine]
Fc1ccc(CNc2nc(Cl)c(Cc3c[nH]c4ncc(Cl)cc34)s2)cc1 [P-0195, [4-Chloro-5-(5-chloro-1H-pyrrolo[2,3-b]pyridin-3-ylmethyl)-thiazol-2-yl]-(4-fluoro-benzyl)-amine]
Cc1nc(C)c(CNc2nc(Cl)c(Cc3c[nH]c4ncc(Cl)cc34)s2)s1 [P-0196, [4-Chloro-5-(5-chloro-1H-pyrrolo[2,3-b]pyridin-3-ylmethyl)-thiazol-2-yl]-(2,4-dimethyl-thiazol-5-ylmethyl)-amine]
CCc1nc(C)c(CNc2nc(Cl)c(Cc3c[nH]c4ncc(Cl)cc34)s2)[nH]1 [P-0197, [4-Chloro-5-(5-chloro-1H-pyrrolo[2,3-b]pyridin-3-ylmethyl)-thiazol-2-yl]-(2-ethyl-5-methyl-3H-imidazol-4-ylmethyl)-amine]
CCn1nccc1CNc1nc(Cl)c(Cc2c[nH]c3ncc(Cl)cc23)s1 [P-0198, [4-Chloro-5-(5-chloro-1H-pyrrolo[2,3-b]pyridin-3-ylmethyl)-thiazol-2-yl]-(2-ethyl-2H-pyrazol-3-ylmethyl)-amine]
COc1cccc(CNc2nc(Cl)c(Cc3c[nH]c4ncc(Cl)cc34)s2)n1 [P-0199, [4-Chloro-5-(5-chloro-1H-pyrrolo[2,3-b]pyridin-3-ylmethyl)-thiazol-2-yl]-(6-methoxy-pyridin-2-ylmethyl)-amine]
Fc1cnccc1CNc1nc(Cl)c(Cc2c[nH]c3ncc(Cl)cc23)s1 [P-0200, [4-Chloro-5-(5-chloro-1H-pyrrolo[2,3-b]pyridin-3-ylmethyl)-thiazol-2-yl]-(3-fluoro-pyridin-4-ylmethyl)-amine]
Cc1nc(CNc2nc(Cl)c(Cc3c[nH]c4ncc(Cl)cc34)s2)cs1 [P-0201, [4-Chloro-5-(5-chloro-1H-pyrrolo[2,3-b]pyridin-3-ylmethyl)-thiazol-2-yl]-(2-methyl-thiazol-4-ylmethyl)-amine]
Cc1ncsc1CNc1nc(Cl)c(Cc2c[nH]c3ncc(Cl)cc23)s1 [P-0202, [4-Chloro-5-(5-chloro-1H-pyrrolo[2,3-b]pyridin-3-ylmethyl)-thiazol-2-yl]-(4-methyl-thiazol-5-ylmethyl)-amine]
Clc1ccc(CNc2nc(Cl)c(Cc3c[nH]c4ncc(Cl)cc34)s2)nc1 [P-0203, [4-Chloro-5-(5-chloro-1H-pyrrolo[2,3-b]pyridin-3-ylmethyl)-thiazol-2-yl]-(5-chloro-pyridin-2-ylmethyl)-amine]
Cc1nc(C)c(CNc2nc(Cl)c(Cc3c[nH]c4ncccc34)s2)s1 [P-0204, [4-Chloro-5-(1H-pyrrolo[2,3-b]pyridin-3-ylmethyl)-thiazol-2-yl]-(2,4-dimethyl-thiazol-5-ylmethyl)-amine]
CCc1nc(C)c(CNc2nc(Cl)c(Cc3c[nH]c4ncccc34)s2)[nH]1 [P-0205, [4-Chloro-5-(1H-pyrrolo[2,3-b]pyridin-3-ylmethyl)-thiazol-2-yl]-(2-ethyl-5-methyl-3H-imidazol-4-ylmethyl)-amine]
Fc1ccc(CNc2nc(Cl)c(Cc3c[nH]c4ncccc34)s2)nc1 [P-0206, [4-Chloro-5-(1H-pyrrolo[2,3-b]pyridin-3-ylmethyl)-thiazol-2-yl]-(5-fluoro-pyridin-2-ylmethyl)-amine]
COc1cncc(CNc2nc(Cl)c(Cc3c[nH]c4ncccc34)s2)c1 [P-0207, [4-Chloro-5-(1H-pyrrolo[2,3-b]pyridin-3-ylmethyl)-thiazol-2-yl]-(5-methoxy-pyridin-3-ylmethyl)-amine]
Cc1cc(CNc2nc(Cl)c(Cc3c[nH]c4ncccc34)s2)sc1C [P-0208, [4-Chloro-5-(1H-pyrrolo[2,3-b]pyridin-3-ylmethyl)-thiazol-2-yl]-(4,5-dimethyl-thiophen-2-ylmethyl)-amine]
Cc1cc(CNc2nc(Cl)c(Cc3c[nH]c4ncccc34)s2)c(C)s1 [P-0209, [4-Chloro-5-(1H-pyrrolo[2,3-b]pyridin-3-ylmethyl)-thiazol-2-yl]-(2,5-dimethyl-thiophen-3-ylmethyl)-amine]
Fc1cccc(Cl)c1CNc1ccc(Cc2c[nH]c3ncccc23)cn1 [P-0210, (2-Chloro-6-fluoro-benzyl)-[5-(1H-pyrrolo[2,3-b]pyridin-3-ylmethyl)-pyridin-2-yl]-amine]
c1ccc(CCNc2ccc(Cc3c[nH]c4ncccc34)cn2)cc1 [P-0211, Phenethyl-[5-(1H-pyrrolo[2,3-b]pyridin-3-ylmethyl)-pyridin-2-yl]-amine]
Fc1ccc(CNc2ccc(Cc3c[nH]c4ncccc34)cn2)c(F)c1 [P-0212, (2,4-Difluoro-benzyl)-[5-(1H-pyrrolo[2,3-b]pyridin-3-ylmethyl)-pyridin-2-yl]-amine]
Fc1ccccc1CNc1ccc(Cc2c[nH]c3ncccc23)cn1 [P-0213, (2-Fluoro-benzyl)-[5-(1H-pyrrolo[2,3-b]pyridin-3-ylmethyl)-pyridin-2-yl]-amine]
Brc1cnccc1CNc1ccc(Cc2c[nH]c3ncccc23)cn1 [P-0214, (3-Bromo-pyridin-4-ylmethyl)-[5-(1H-pyrrolo[2,3-b]pyridin-3-ylmethyl)-pyridin-2-yl]-amine]
COc1ncccc1CNc1ccc(Cc2c[nH]c3ncccc23)cn1 [P-0215, (2-Methoxy-pyridin-3-ylmethyl)-[5-(1H-pyrrolo[2,3-b]pyridin-3-ylmethyl)-pyridin-2-yl]-amine]
Clc1ccccc1CNc1ccc(Cc2c[nH]c3ncccc23)cn1 [P-0216, (2-Chloro-benzyl)-[5-(1H-pyrrolo[2,3-b]pyridin-3-ylmethyl)-pyridin-2-yl]-amine]
